Results are given in words; binding and its absence hold for the method and conditions named. Some binding calls cover weakened binding; strength is not graded here.
T1: Mouse IL-18Rα ectodomain (amino acids 19-329) (mouse) (UniProt Q61098)
T1 sequence (chain, biotin on the AviTag (BirA ligase)): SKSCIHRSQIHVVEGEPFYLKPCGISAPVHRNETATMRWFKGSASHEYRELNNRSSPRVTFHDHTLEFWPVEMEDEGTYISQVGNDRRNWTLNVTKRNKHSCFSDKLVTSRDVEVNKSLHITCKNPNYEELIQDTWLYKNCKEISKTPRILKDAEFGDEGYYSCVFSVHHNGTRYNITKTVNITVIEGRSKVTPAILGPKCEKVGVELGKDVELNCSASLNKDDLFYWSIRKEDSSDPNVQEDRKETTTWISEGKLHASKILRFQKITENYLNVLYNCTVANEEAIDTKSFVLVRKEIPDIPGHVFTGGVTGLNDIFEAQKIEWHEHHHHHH


How the values were obtained:
[1] = target: T1, Mouse IL-18Rα ectodomain (amino acids 19-329) (mouse); assay: on-yeast binding isotherm, flow cytometry (FIG. 11A)
[2] = target: T1, Mouse IL-18Rα ectodomain (amino acids 19-329) (mouse); assay: yeast binding isotherms and SPR

Binder	binding [1]	binding [2]
mA7 (ligand, Murine DR-IL-18 variant; recombinant with C-terminal hexahistidine tag in SPR; fusion and tag not written) YFGRLHCTTAVIRNINDQVLFVDKRQPVFEDMTDIDQSASEPQTRLIIYAYGDNRVRGKAVTLSVKDSKMSTLSCKNKIISFEEMDPPENIDDIQSDLIFFQKRVPGHNKMEFESSLYEGHFLACQKEDDAFKLILKKKDENGDKSVMFTLTNLHQS	binds	binds
mC1 (ligand, Murine DR-IL-18 variant; recombinant with C-terminal hexahistidine tag in SPR; fusion and tag not written) NFGRLHCTTAVIRNINDQVLFVDKRQPVFEDMTDIDQSASEPQTRLIIYAYVDRRLRGKAVTLSVKDSKMSTLSCKNKIISFEEMDPPENIDDIQSDLIFFQKKVPGHNKMEFESSLYEGHFLACQKEDDAFKLILKKKDENGDKSVMFTLTNLHQS	binds	binds
mCS2 (ligand, Murine DR-IL-18 consensus variant; recombinant with C-terminal hexahistidine tag in SPR; fusion and tag not written) HFGRLHCTTAVIRNINDQVLFVDKRQPVFEDMTDIDQSASEPQTRLIIYAYGDSRARGKAVTLSVKDSKMSTLSCKNKIISFEEMDPPENIDDIQSDLIFFQKRVPGHNKMEFESSLYEGHFLACQKEDDAFKLILKKKDENGDKSVMFTLTNLHQS	binds	binds
mE8 (ligand, Murine DR-IL-18 variant; recombinant with C-terminal hexahistidine tag in SPR; fusion and tag not written) NFGRLHCTTAVIRNINDQVLFVDKRQPVFEDMTDIDQSASEPQTRLIIYVYTDGRRRGKAVTLSVKDSKMSTLSCKNKIISFEEMDPPENIDDIQSDLIFFQKKVPGHDKMEFESSLYEGHFLACQKEDDAFKLILKKKDENGDKSVMFTLTNLHQS	binds	binds
mB1 (ligand) HFGRLHCTTAVIRNINDQVLFVDKRQPVFEDMTDIDQSASEPQTRLIIYGYADSDARAKAVTLSVKDSKMSTLSCKNKIISFEEMDPPENIDDIQSDLIFFQKSVPGHNKMEFESSLYEGHFLACQKEDDAFKLILKKKDENGDKSVMFTVTNLHQS	binds	binds
mCS1 (ligand) NFGRLHCTTAVIRNINDQVLFVDKRQPVFEDMTDIDQSASEPQTRLIIYGYADSRVRGKAVTLSVKDSKMSTLSCKNKIISFEEMDPPENIDDIQSDLIFFQKRVPGHNKMEFESSLYEGHFLACQKEDDAFKLILKKKDENGDKSVMFTLTNLHQS	binds	binds
